Out of some 400,000 compounds screened, about 5,500 (1.4%) were called active. Inconclusive results, whose numbers are uncertain, are shown with a selection of clear calls. Calls follow the shape of the dose curve; as a rule, active = well fitted cell-killing curve with a large enough effect; inconclusive = small, poorly fitted or top-dose-only effect, or effect the other way; inactive = flat fitted curve, though single readings scatter. Potencies of inconclusive entries are doubtful fits and often do not repeat.
Assay: qHTS assay for MDR1-selective chemotherapeutics: Primary screen using the parental adenocarcinoma cell KB-3-1; also: nearly all actives have a fitted effect of over 60% in size
Details: KB-3-1 viability, CellTiter-Glo ATP luminescence, 72 h; series mostly up to 46.1 µM
How it was run: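 KB-3-1 parental drug-naive adenocarcinoma cells in DMEM/10% FBS, incubated 72 h at 37 C with pin-transferred compounds across a concentration series. Viability by CellTiter-Glo luminescence; concentration-response curves fitted after normalization.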
For `CCOc1ccc(-c2cc(C(=O)Nc3ccc4c(c3)OCCO4)c3ccccc3n2)cc1`, the Potency was active: 18.4 µM.
For `Cc1ccc(NC(=O)CSc2nnc(-c3n[nH]c4ccccc34)n2-c2ccccc2)c(C)c1`, the Potency was “inactive”.
In the case of `NS(=O)(=O)c1cc2c(cc1Cl)NCNS2(=O)=O`, the Potency is reported as inconclusive: 13 µM [rising, single point].
With `CN(C)c1ccc(-c2ccnc3c2CC(C)(C(=O)Nc2ccc(Cl)c(C(F)(F)F)c2)O3)cc1` (centres undefined) the Potency was active: 16.4 µM.
In the case of `c1ccc2c(c1)OCC(CNCC1COc3ccccc3O1)O2` (centres undefined), the Potency is reported as “inactive”.
With `Cc1oc2c(CN3CCCC3)c(O)ccc2c(=O)c1Oc1ccccc1Br` the Potency was inconclusive: 18.4 µM [rising, single point].
In the case of `Cc1nnc2ccc(-c3ccc(NS(=O)(=O)c4ccc(F)cc4F)cc3)nn12`, the Potency is reported as inconclusive: 29.1 µM [rising, partial curve, poor fit].
With `Cc1ccc(S(=O)(=O)c2c(C)cc(C)nc2N2CCCC2)cc1` the Potency was inconclusive: 0.731 µM [cytotoxic, full curve, poor fit].
With `Cc1nc2ccccc2nc1OCc1ccc([N+](=O)[O-])cc1` the Potency was inconclusive: 29.1 µM [rising, single point].
In the case of `CNC(=S)N(CCc1c(C)[nH]c2ccc(C)cc12)Cc1cc(OC)c(OC)c(OC)c1`, the Potency is reported as inconclusive: 18.4 µM [cytotoxic, single point].
In the case of `CNc1ncnc2sc(-c3ccccc3)cc12`, the Potency is reported as inconclusive: 29.1 µM [cytotoxic, single point].
With `COc1ccc(NC(=O)c2cc([N+](=O)[O-])ccc2O)cc1` the Potency was active: 18.4 µM.
In the case of `Cc1ccc(NC(=O)CSc2nccn2Cc2ccccc2)cc1C`, the Potency is reported as “inactive”.
In the case of `CN1CCc2c(C#N)c(N3CCCCC3)nc(NCc3ccccc3)c2C1`, the Potency is reported as inconclusive: 29.1 µM [cytotoxic, single point].
With `Fc1cc(F)c2nc(Nc3nc4c(F)cccc4s3)sc2c1` the Potency was inconclusive: 23.1 µM [cytotoxic, single point].
With `COc1cnc(-c2ccccn2)nc1Oc1ccc(Cl)c2ccccc12` the Potency was inconclusive: 13 µM [cytotoxic, partial curve].
In the case of `COc1ccc(/C=C/c2cccc[n+]2C)c(O)c1`, the Potency is reported as inconclusive: 23.1 µM [cytotoxic, single point].
With `CC(=O)OCCNc1cc(N2CCN(C)CC2)c2noc3c2c1C(=O)c1ccccc1-3` the Potency was “inactive”.
With `Cc1ccc(-n2ncc3c(SCc4ccccc4)ncnc32)cc1` the Potency was inconclusive: 23.1 µM [cytotoxic, single point].
For `Cc1cccc(NC(=O)c2nc[nH]c2C(=O)N2CCc3ccccc3C2)c1`, the Potency was inconclusive: 3.66 µM [cytotoxic, partial curve, poor fit].
In the case of `CCC(=O)N1CCc2cc(S(=O)(=O)N(C)c3ccc(OC)cc3OC)ccc21`, the Potency is reported as “inactive”.
With `O=C(Nc1ccc(Cl)cc1)C1CCCCN1S(=O)(=O)c1ccccc1` (centres undefined) the Potency was active: 23.1 µM.
In the case of `Nc1c(N(CCC2=CCCCC2)C(=O)COc2ccc([N+](=O)[O-])cc2)c(=O)[nH]c(=O)n1Cc1ccccc1`, the Potency is reported as inconclusive: 20.6 µM [cytotoxic, single point].
With `COc1cccc(NC(=O)/C=C/c2ccccc2[N+](=O)[O-])c1` the Potency was inconclusive: 8.2 µM [cytotoxic, partial curve, poor fit].
In the case of `CCOC(=O)/C(=C/C=C1\Sc2cc(C)c(C)cc2N1CC)C(C)=O`, the Potency is reported as inconclusive: 14.6 µM [cytotoxic, partial curve].
With `CCOc1ccc(NCc2nc3ccccc3n2CCOc2ccc(C)cc2)cc1` the Potency was inconclusive: 23.1 µM [cytotoxic, single point].
With `Cc1sc(NC(=O)CCl)c(C(=O)c2ccccc2)c1C` the Potency was inconclusive: 29.1 µM [cytotoxic, single point].
In the case of `COC(=O)c1cc(=O)n(Cc2ccc3c(c2)OCO3)c(=Nc2ccccc2)s1`, the Potency is reported as inconclusive: 29.1 µM [cytotoxic, single point].
In the case of `O=C(Nc1nc2c(F)cccc2s1)c1ccco1`, the Potency is reported as inconclusive: 3.66 µM [cytotoxic, full curve, poor fit].
For `Cn1c(=NCC(O)COc2ccccc2)sc2ccccc21` (centres undefined), the Potency was inconclusive: 10.3 µM [cytotoxic, partial curve].
With `CC(=O)C1=C(c2ccccc2)N(C(C)=O)n2c(C)nnc2S1` the Potency was inconclusive: 29.1 µM [cytotoxic, single point].
In the case of `COc1cc(OC)c(/C=C/c2cc3c4ccccc4ccc3[n+](C)c2)c(OC)c1`, the Potency is reported as active: 8.2 µM.
With `O=C(Nc1cccc(F)c1)c1oc2ccccc2c1NC(=O)C12CC3CC(CC(C3)C1)C2` the Potency was “inactive”.
For `COc1cc(C(=O)NCc2ccc(C)cc2)ccc1OCc1c(C)noc1C`, the Potency was “inactive”.
With `Cc1ccc(-n2c(C)cc(C)c(C#N)c2=O)cc1C` the Potency was “inactive”.
For `CC(C)(C)NCC(O)CON=C1c2ccccc2-c2ccccc21` (centres undefined), the Potency was inconclusive: 29.1 µM [cytotoxic, single point].
For `O=C(c1cn(-c2ccccc2)nc1-c1ccc(Br)cc1)N1CCOCC1`, the Potency was “inactive”.
For `CCOc1ccc2[nH]c(C(=O)N/N=C/c3ccccc3OC)cc2c1`, the Potency was inconclusive: 14.6 µM [cytotoxic, partial curve, poor fit].
For `CCCCCn1cc2c(c1-c1ccccc1Br)c(=O)n(C)c(=O)n2C`, the Potency was “inactive”.
For `Cc1nn(Cc2ccccc2Cl)c(C)c1C(=O)Nc1nnc(C2CC2)s1`, the Potency was “inactive”.
In the case of `Cc1ccc2[nH]c(=O)c(CN(C(=O)c3cccc([N+](=O)[O-])c3)C(C)C)cc2c1`, the Potency is reported as “inactive”.
With `CC(=O)c1ccc(NC(=O)C(C)n2c3ccccc3c3nc(=O)cc(C)n32)cc1` (centres undefined) the Potency was inconclusive: 16.4 µM [rising, partial curve, poor fit].
In the case of `CCC(C)Sc1ccc([C@H]2N[C@@](Cc3ccccc3)(C(=O)OC)[C@H]3C(=O)N(CC)C(=O)[C@@H]23)cc1` (some centres undefined), the Potency is reported as inconclusive: 25.9 µM [cytotoxic, partial curve, poor fit].
For `CCOc1ccc(NC(=O)CC2C(=O)N(c3ccccc3)C(=S)N2Cc2ccccn2)cc1` (centres undefined), the Potency was inconclusive: 32.6 µM [cytotoxic, single point].

From PubChem BioAssay AID1347075 (National Center for Advancing Translational Sciences (NCATS), 2019)
Potency is read from the fitted curve at half-maximal effect.
